Publication PMC8192512
These are yes or no findings as the source states them, for the method shown. In cells and extracts the contact can be indirect. Some results given as binding are weak or reduced against the parent protein; the word gives no strength.

The chains behind the UniProt entries cited, without tags or fusion partners. Residues count along the entry.
UniProt E2JF22: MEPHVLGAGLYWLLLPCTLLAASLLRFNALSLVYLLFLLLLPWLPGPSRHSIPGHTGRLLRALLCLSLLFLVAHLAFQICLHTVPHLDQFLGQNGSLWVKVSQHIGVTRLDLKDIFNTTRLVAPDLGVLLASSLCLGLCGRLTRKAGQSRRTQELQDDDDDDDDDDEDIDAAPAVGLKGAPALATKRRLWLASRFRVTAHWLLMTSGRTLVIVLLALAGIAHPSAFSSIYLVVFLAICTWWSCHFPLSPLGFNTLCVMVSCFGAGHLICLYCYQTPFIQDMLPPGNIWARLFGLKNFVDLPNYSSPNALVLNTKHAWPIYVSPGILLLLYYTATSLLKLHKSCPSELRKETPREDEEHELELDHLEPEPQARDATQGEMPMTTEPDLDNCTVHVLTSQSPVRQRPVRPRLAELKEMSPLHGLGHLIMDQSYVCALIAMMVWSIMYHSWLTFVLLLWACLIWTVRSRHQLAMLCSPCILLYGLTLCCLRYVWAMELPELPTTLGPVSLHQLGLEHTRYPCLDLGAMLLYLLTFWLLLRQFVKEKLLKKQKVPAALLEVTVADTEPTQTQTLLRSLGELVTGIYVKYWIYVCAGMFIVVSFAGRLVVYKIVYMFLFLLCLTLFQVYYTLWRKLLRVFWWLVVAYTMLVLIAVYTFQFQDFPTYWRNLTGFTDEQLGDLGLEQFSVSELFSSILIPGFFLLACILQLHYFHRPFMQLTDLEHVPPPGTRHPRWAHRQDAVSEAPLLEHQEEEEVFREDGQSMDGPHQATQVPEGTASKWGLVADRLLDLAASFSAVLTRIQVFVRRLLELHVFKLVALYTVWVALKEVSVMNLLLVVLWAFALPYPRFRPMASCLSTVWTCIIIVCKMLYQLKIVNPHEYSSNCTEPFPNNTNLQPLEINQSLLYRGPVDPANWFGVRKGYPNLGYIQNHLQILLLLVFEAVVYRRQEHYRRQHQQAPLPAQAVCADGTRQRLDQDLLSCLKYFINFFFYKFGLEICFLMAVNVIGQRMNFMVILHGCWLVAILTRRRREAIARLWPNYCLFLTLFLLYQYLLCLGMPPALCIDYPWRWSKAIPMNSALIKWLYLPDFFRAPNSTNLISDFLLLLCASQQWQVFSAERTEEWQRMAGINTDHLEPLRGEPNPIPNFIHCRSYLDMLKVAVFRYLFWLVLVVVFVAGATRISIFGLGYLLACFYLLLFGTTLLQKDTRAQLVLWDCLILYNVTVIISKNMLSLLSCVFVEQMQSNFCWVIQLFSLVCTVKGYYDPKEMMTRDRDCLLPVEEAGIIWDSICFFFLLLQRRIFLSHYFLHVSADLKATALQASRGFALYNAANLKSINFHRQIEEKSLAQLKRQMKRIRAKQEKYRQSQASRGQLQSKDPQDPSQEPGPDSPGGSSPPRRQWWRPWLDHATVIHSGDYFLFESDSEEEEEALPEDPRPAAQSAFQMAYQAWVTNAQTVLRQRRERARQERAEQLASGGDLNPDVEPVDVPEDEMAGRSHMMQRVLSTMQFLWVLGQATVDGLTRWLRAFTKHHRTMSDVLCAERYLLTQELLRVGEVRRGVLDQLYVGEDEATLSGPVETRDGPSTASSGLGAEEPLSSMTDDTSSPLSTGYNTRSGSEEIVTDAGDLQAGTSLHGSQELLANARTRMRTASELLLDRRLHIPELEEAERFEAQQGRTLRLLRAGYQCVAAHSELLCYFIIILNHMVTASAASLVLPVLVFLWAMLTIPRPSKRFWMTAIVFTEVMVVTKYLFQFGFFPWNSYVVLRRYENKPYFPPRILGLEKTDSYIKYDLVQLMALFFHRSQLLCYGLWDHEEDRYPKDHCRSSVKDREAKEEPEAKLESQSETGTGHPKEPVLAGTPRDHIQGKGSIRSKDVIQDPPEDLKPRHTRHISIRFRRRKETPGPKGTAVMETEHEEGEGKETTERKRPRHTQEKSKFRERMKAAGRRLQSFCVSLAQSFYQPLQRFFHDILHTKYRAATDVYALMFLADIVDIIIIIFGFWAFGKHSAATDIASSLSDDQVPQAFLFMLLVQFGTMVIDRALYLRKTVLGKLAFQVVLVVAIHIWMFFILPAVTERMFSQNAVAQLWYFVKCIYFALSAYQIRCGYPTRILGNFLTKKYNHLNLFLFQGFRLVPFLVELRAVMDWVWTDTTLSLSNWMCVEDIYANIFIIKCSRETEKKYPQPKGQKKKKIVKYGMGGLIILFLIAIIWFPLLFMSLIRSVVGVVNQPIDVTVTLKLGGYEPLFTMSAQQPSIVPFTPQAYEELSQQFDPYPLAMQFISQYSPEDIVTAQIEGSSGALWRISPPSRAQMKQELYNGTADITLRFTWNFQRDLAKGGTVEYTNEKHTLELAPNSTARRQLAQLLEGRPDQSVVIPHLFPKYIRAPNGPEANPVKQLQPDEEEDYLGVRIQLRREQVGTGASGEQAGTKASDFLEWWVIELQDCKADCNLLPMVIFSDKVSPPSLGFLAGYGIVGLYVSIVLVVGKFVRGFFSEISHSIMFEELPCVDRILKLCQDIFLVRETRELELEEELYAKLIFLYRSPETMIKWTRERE
UniProt Q9QUK6, residues 26-835: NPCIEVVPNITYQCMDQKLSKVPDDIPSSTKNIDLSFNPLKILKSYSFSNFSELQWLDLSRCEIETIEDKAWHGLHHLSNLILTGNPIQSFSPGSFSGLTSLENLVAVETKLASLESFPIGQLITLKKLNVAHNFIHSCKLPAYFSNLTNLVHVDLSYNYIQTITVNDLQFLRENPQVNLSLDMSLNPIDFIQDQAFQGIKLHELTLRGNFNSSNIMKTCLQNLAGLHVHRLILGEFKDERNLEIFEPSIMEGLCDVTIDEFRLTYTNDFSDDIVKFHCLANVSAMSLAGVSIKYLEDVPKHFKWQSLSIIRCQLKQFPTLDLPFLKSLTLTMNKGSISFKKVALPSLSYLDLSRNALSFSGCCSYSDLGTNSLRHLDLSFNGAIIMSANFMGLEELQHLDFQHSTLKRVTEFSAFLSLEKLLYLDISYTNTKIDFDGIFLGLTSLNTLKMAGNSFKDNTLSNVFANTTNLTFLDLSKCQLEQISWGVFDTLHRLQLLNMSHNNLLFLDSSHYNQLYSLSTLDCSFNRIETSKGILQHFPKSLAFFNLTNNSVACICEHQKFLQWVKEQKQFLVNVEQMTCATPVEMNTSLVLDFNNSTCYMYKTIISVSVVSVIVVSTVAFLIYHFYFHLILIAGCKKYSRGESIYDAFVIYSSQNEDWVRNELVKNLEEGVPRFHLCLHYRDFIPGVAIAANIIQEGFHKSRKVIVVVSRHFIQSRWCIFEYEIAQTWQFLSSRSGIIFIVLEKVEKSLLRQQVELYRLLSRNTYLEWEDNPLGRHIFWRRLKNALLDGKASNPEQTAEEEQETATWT

How the values were obtained:
mTagBFP-Piezo1 = mTagBFP-Piezo1 (UniProt E2JF22); test: FRET or BRET; 293T cells co-transfected with mTagBFP-Piezo1 and GFP-TLR4; acceptor photobleaching (488 nm), FRET efficiency from BFP to GFP; confocal microscope
[1] = target: Piezo1-tdTomato fusion protein (mouse (endogenous locus in BMDMs of Piezo1^P1tdT mice)) (UniProt E2JF22); test: co-IP; BMDMs expressing RFP-tagged Piezo1 treated with or without LPS; immunoprecipitated with anti-RFP or control IgG, immunoblot with anti-TLR4 or anti-RFP

With “GFP-TLR4 (from UniProt Q9QUK6 26-835) (receptor)” the binding (mTagBFP-Piezo1) was “binds”.

In the case of “TLR4 (from UniProt Q9QUK6 26-835) (receptor)”, the binding [1] is reported as “binds”.
